# Data source: PubChem BioAssay AID686943 (Drosophila RNAi Screening Center, 2013)
# Screen: 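Search across the genome for regulators of signalling from receptor tyrosine kinase to ERK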 (primary screen)
# Cell system: Drosophila S2R+ haemocyte-like cells expressing YFP-tagged ERK (Rolled)
# Reagent: long dsRNA against Drosophila genes
# Conditions: insulin stimulation versus unstimulated cells; dose and duration not given
# Detection: 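Per-plate z-scores of phospho-ERK immunostaining normalised to YFP-tagged ERK, measured with and without insulin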
# Reading the numbers: replicate 1, z-score of dpERK with insulin and replicate 2, z-score of dpERK with insulin: higher = more active ERK per ERK-YFP after insulin; replicate 1, z-score of dpERK under basal conditions: higher = more basal active ERK per ERK-YFP; replicate 1, z-score of ERK-YFP with insulin: higher = more YFP-tagged ERK signal
# The deposit covers about 23,000 reagents; below is a random part of those with a known target gene and a result. 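Extra replicates exist only for a retested subset of genes; insulin dose and duration not given; both raised and lowered dpERK matter.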 A plus sign joins genes that one reagent is predicted to hit. Reagent sequences are not shown. Not stated in the record: the amount of reagent, the time to read-out.
target,dsRNA,"replicate 1, z-score of dpERK with insulin","replicate 2, z-score of dpERK with insulin","replicate 1, z-score of dpERK under basal conditions","replicate 1, z-score of ERK-YFP with insulin"
CG10979,DRSC12153,0.13,0.33,-0.17,0.31
CG14089,DRSC10093,-0.39,0.65,-0.38,0.8
CG42329,DRSC00373,0.34,-0.19,-0.05,0.26
CG42329,DRSC00682,-0.71,-0.29,0.24,-0.25
Bet1,DRSC10088,-2.54,1.07,-0.45,-0.98
niki,DRSC14285,0.47,0,1.25,0.09
anne,DRSC17103,1.3,3.58,3.03,-2.66
dsb,DRSC08407,-2.07,-1.05,-0.26,-2.18
dsb,DRSC08542,0.3,-0.01,0.98,0.33
Fit2,DRSC10908,-0.53,-0.16,-0.34,0.41
zetaCOP,DRSC11412,0.27,1.01,-0.33,-1.22
Ank2,DRSC08894,-0.11,0.1,0.91,0.68
Ank2,DRSC09666,0.28,0.48,-0.31,0.21
Ank2,DRSC10338,-0.65,-0.98,-0.17,1.64
Ank2,DRSC11278,-0.2,-0.2,1.56,-0.08
Ank2,DRSC22922,-0.24,-0.49,-0.01,0.68
CG31183,DRSC14403,-0.19,1.16,0.28,0.48
CG31183,DRSC15554,-0.46,1.26,-0.18,0
asRNA:CR31845,DRSC22257,-0.13,-0.96,-2.13,1.24
NFAT,DRSC18991,-6.4,-4.68,0,-2.72
NFAT,DRSC19393,0.26,0,1.23,0.27
Cow,DRSC13601,-0.55,-0.44,-1.81,-0.85
Cow,DRSC14680,0.29,0.05,-0.33,0.29
CG33229,DRSC07863,-0.11,1.62,0.76,0.87
CG7747,DRSC07038,0.31,0.18,0.88,0.15
Syt4,DRSC12606,0.31,0.28,0.18,0.25
Wdr81,DRSC02985,-0.97,0.04,-0.19,1.05
uno,DRSC07244,0.36,0.35,-0.3,0.08
Sou,DRSC04356,-1.11,-1.06,2.3,0.45
CG42854,DRSC19173,-0.75,-0.51,-2.64,0.67
Patr-1,DRSC14159,-0.44,-1.4,1.02,-1.33
Dgp-1,DRSC07400,-0.14,0.61,-0.97,0.56
Syb,DRSC07559,0.58,0.52,-0.06,1.04
BI-1,DRSC10782,-0.94,-0.27,-0.36,0.2
CG42869 + Sfp93F,DRSC13505,-0.3,0.87,-0.18,-0.3
Tip60,DRSC18661,-0.08,-1.41,-0.44,0.74
Trf4-2,DRSC15237,0.82,-0.23,-0.15,0.23
drk,DRSC07606,-4.9,-4.4,-2.56,-1.33
Cnep1r2,DRSC10950,0.29,0.02,-0.5,-0.25
